Laboratory results from publication PMC7484554.
These are yes or no findings as the source states them, for the method shown. Binding seen in cells or lysates may run through a third protein. Some entries that bind do so weakly or less than the wild type. For some of these results: Sequences can lack the tags named with a protein. Blank lines part the entries; values can stand above or below the molecule they belong to.

By UniProt entry, the sequences of proteins in these tests, tags left out. Where a name states a change or a piece, a line headed by the entry shows the natural chain unless it says otherwise. Chains listed by the source or under a name are the forms on record and can include a tag or linker.
UniProt O35973: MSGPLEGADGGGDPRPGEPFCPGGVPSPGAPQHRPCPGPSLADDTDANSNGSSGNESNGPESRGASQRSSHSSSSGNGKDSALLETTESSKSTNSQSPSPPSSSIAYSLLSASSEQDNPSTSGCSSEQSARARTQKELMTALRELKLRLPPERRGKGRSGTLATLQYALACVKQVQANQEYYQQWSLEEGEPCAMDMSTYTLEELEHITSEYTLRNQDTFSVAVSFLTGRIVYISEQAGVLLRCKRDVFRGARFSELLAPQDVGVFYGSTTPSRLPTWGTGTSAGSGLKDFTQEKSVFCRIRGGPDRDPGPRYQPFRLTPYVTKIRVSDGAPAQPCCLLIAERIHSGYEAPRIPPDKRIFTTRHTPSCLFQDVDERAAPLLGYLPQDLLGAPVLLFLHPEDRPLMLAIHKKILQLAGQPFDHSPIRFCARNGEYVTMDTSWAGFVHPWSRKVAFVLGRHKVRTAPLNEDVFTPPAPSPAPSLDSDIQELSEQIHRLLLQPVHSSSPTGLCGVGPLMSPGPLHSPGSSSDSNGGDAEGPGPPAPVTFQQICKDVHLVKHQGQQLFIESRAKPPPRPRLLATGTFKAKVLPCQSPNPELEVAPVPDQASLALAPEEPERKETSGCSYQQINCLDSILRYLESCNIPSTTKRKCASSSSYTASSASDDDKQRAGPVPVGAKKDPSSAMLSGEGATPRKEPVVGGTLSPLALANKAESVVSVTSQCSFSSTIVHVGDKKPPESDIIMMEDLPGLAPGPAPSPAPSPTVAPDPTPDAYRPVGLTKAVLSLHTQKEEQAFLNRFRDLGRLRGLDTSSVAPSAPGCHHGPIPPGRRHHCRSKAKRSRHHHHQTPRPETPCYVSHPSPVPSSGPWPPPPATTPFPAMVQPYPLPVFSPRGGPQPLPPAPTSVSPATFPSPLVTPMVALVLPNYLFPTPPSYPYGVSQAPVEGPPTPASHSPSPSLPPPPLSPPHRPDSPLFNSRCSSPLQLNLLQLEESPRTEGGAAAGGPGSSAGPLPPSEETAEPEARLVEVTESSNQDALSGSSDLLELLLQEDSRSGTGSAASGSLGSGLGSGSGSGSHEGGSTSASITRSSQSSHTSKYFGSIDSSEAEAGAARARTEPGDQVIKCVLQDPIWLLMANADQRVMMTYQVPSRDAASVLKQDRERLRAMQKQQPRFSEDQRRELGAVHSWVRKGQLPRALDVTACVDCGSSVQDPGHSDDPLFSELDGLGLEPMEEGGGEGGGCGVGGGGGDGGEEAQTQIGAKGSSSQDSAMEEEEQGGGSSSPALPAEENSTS
HA-tagged PER1, 178–324 aa deletion (O35973, form named): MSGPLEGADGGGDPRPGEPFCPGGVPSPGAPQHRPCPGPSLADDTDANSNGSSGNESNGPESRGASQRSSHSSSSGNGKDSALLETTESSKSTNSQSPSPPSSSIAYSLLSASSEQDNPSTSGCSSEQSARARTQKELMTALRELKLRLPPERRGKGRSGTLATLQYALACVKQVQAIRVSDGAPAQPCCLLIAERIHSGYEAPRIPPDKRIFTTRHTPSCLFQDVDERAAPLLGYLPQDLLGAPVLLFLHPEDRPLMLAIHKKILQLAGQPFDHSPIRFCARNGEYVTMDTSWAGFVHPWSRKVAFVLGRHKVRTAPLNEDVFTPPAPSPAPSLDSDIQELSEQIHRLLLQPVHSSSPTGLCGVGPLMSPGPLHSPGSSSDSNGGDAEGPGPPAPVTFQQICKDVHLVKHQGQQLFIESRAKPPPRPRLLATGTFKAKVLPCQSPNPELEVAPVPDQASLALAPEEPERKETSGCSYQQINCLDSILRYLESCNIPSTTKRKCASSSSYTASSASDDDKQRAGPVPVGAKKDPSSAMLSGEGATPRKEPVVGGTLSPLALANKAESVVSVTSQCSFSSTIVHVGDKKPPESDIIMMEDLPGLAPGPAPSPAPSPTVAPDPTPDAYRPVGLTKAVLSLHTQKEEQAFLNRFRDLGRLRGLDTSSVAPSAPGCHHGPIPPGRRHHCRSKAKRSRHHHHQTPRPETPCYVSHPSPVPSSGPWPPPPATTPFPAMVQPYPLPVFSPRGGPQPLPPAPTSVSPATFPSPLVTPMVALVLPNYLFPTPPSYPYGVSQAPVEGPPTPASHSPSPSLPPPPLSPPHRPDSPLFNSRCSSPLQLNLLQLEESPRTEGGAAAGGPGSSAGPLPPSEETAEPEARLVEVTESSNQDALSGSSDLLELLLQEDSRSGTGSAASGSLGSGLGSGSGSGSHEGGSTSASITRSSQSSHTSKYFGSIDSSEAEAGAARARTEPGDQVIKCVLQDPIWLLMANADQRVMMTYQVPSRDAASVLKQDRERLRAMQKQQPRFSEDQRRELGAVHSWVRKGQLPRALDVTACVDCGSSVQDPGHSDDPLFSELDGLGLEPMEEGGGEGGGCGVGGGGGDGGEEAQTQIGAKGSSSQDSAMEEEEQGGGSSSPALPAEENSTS

Columns and labels:
[1] = molecular target: T1, GPX1 (mouse (endogenous in liver and small intestine)) (UniProt P11352); test: co-IP; cytoplasmic extracts of WT mouse liver or small intestine at ZT1 or ZT13; lysis in 10 mM Tris-HCl pH 8.0, 420 mM NaCl, 1 mM EDTA, 0.5% NP-40; antibody overnight at 4 °C, Protein G-Sepharose 4B; western blot
T1 sequence (chain, selenocysteine (46 aa)): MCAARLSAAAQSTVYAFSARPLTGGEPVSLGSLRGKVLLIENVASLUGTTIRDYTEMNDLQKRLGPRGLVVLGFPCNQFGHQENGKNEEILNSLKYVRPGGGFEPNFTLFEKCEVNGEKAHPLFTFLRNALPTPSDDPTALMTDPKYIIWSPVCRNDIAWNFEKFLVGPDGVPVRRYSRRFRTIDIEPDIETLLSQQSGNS

[2] = molecular target: T2, HA-tagged fragment of GPX1, amino acids 130–201 (mouse) (UniProt P11352); test: co-IP; lysates of NIH-3T3 cells coexpressing HA-tagged fragments of GPX1 and a vector expressing PER1, immunoprecipitated with an anti-HA antibody; western blot
T2 sequence: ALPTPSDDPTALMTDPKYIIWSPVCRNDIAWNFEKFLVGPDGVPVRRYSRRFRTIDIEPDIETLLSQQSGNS

[3] = molecular target: HA-tagged PER1 (mouse) (UniProt O35973); test: co-IP; lysates of NIH-3T3 cells expressing HA-tagged PER1 or its mutant forms, immunoprecipitated with an anti-HA antibody; western blot
[4] = molecular target: HA-tagged PER1, 178–324 aa deletion (mouse) (UniProt O35973); test: as above

binding [1]: binds
Molecule: PER1 (from UniProt O35973 1-1291)

binding [2]: binds
Molecule: PER1 (from a vector expressing PER1) (from UniProt O35973 1-1291)

binding [3]: binds | binding [4]: binds
B1: GPX1 (enzyme, UniProt P11352 1-201)
chain: T1 sequence (chain, selenocysteine (46 aa))
modifications: selenocysteine (46 aa)
